# Assay results from the supplement of paper PMC8728848.
# The list shows a part of the results.
# How the values were obtained:
# Experiment in all cases: glycan array binding signal (z-score within array); higher = stronger binding
# Settings in all cases: glycan notation: IUPAC condensed, linker removed
# GalNAc(b1-3)Gal = biological target: GalNAc(b1-3)Gal
# Outline: (§1)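 Negative Z-scores can be read as non-binding. The Z-score is calculated within each array and then averaged across arrays of one protein sequence at different concentrations or buffers and across linkers. Arrays, 3228 in all, were curated from the Consortium for Functional Glycomics database and kept only where the protein sequence was available.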
# [1] = biological target: GalNAc(b1-3)Gal(a1-4)Gal(b1-4)GlcNAc
# Outline: as §1
# [2] = biological target: GalNAc(b1-3)Gal(a1-4)Gal(b1-4)GlcNAc(b1-3)Gal(b1-4)Glc
# Outline: as §1
# [3] = biological target: GalNAc(b1-3)Gal(a1-6)Gal(b1-4)Glc
# Outline: as §1
# GalNAc(b1-3)GalNAc = biological target: GalNAc(b1-3)GalNAc
# Outline: as §1
# GalNAc(b1-3)GlcNAc = biological target: GalNAc(b1-3)GlcNAc
# Outline: as §1
# GalNAc(b1-4)Gal(b1-4)Glc = biological target: GalNAc(b1-4)Gal(b1-4)Glc
# Outline: as §1
# GalNAc(b1-4)GlcNAc = biological target: GalNAc(b1-4)GlcNAc
# Outline: as §1
# [4] = biological target: GalNAc(b1-4)GlcNAc(b1-2)Man
# Outline: as §1
# [5] = biological target: GalNAc(b1-4)GlcNAc(b1-2)Man(a1-3)[GalNAc(b1-4)GlcNAc(b1-2)Man(a1-6)]Man(b1-4)GlcNAc(b1-4)GlcNAc
# Outline: as §1
# [6] = biological target: GalNAc(b1-4)GlcNAc(b1-3)GalNAc(b1-4)GlcNAc
# Outline: as §1
# GalNAc(b1-4)GlcNAc6S = biological target: GalNAc(b1-4)GlcNAc6S
# Outline: as §1
# GalNAc(b1-6)GalNAc = biological target: GalNAc(b1-6)GalNAc
# Outline: as §1
# GalNAc3S(b1-4)GlcNAc = biological target: GalNAc3S(b1-4)GlcNAc
# Outline: as §1
# GalNAc3S(b1-4)GlcNAc3S = biological target: GalNAc3S(b1-4)GlcNAc3S
# Outline: as §1
# [7] = biological target: GalNAc3S(b1-4)[Fuc(a1-3)]GlcNAc
# Outline: as §1
# GalNAc4S6S(b1-4)GlcNAc = biological target: GalNAc4S6S(b1-4)GlcNAc
# Outline: as §1
# GalNAc6S(b1-4)GlcNAc = biological target: GalNAc6S(b1-4)GlcNAc
# Outline: as §1
# Glc(a1-4)Glc = biological target: Glc(a1-4)Glc
# Outline: as §1
# [8] = biological target: Glc(a1-4)Glc(a1-4)Glc(a1-4)Glc
# Outline: as §1
# Glc(a1-6)Glc(a1-6)Glc = biological target: Glc(a1-6)Glc(a1-6)Glc
# Outline: as §1
# [9] = biological target: Glc(a1-6)Glc(a1-6)Glc(a1-6)Glc
# Outline: as §1
# Glc(b1-4)Glc = biological target: Glc(b1-4)Glc
# Outline: as §1
# Glc(b1-6)Glc = biological target: Glc(b1-6)Glc
# Outline: as §1
# GlcA(b1-3)Gal = biological target: GlcA(b1-3)Gal
# Outline: as §1
# GlcA(b1-3)GlcNAc = biological target: GlcA(b1-3)GlcNAc
# Outline: as §1
# GlcA(b1-6)Gal = biological target: GlcA(b1-6)Gal
# Outline: as §1
# [10] = biological target: GlcA3S(b1-3)Gal(b1-4)GlcNAc(b1-2)Man
# Outline: as §1
# [11] = biological target: GlcA3S(b1-3)Gal(b1-4)GlcNAc(b1-3)Gal(b1-4)Glc
# Outline: as §1
# [12] = biological target: GlcNAc(a1-3)Gal(b1-4)GlcNAc
# Outline: as §1
# [13] = biological target: GlcNAc(a1-4)Gal(b1-3)GlcNAc
# Outline: as §1
# [14] = biological target: GlcNAc(a1-4)Gal(b1-4)GalNAc
# Outline: as §1
# [15] = biological target: GlcNAc(a1-4)Gal(b1-4)GlcNAc
# Outline: as §1
# [16] = biological target: GlcNAc(a1-4)Gal(b1-4)GlcNAc(b1-3)Gal(b1-4)Glc
# Outline: as §1
# [17] = biological target: GlcNAc(a1-4)Gal(b1-4)GlcNAc(b1-3)Gal(b1-4)GlcNAc
# Outline: as §1
# [18] = biological target: GlcNAc(a1-4)Gal(b1-4)GlcNAc(b1-3)Gal(b1-4)GlcNAc(b1-3)Gal(b1-4)GlcNAc
# Outline: as §1
# [19] = biological target: GlcNAc(a1-4)Gal(b1-4)GlcNAc(b1-3)Gal(b1-4)[Fuc(a1-3)]GlcNAc(b1-3)Gal(b1-4)[Fuc(a1-3)]GlcNAc
# Outline: as §1
# [20] = biological target: GlcNAc(a1-6)Gal(b1-4)GlcNAc
# Outline: as §1
binder,measurement,setting,value
Aap lectin (Staphylococcus epidermidis) (protein) VNLNYSSPFMSLLSMPADSSSNNTKNTIDIPPTTVKGRDNYDFYGRVDIESNPTDLNATNLTRYNYGQPPGTTTAGAVQFKNQVSFDKDFDFNIRVANNRQSNTTGADGWGFMFSKKDGDDFLKNGGILREKGTPSAAGFRIDTGYYNNDPLDKIQKQAGQGYRGYGTFVKNDSQGNTSKVGSGTPSTDFLNYADNTTNDLDGKFHGQKLNNVNLKYNASNQTFTATYAGKTWTATLSELGLSPTDSYNFLVTSS,glycan array binding signal (z-score),GalNAc(b1-3)Gal,0.081
same,glycan array binding signal (z-score),[1],1.74
same,glycan array binding signal (z-score),[2],-0.753
same,glycan array binding signal (z-score),[3],0.898
same,glycan array binding signal (z-score),GalNAc(b1-3)GalNAc,-0.41
same,glycan array binding signal (z-score),GalNAc(b1-3)GlcNAc,-0.351
same,glycan array binding signal (z-score),GalNAc(b1-4)Gal(b1-4)Glc,-0.556
same,glycan array binding signal (z-score),GalNAc(b1-4)GlcNAc,-0.776
same,glycan array binding signal (z-score),[4],-0.244
same,glycan array binding signal (z-score),[5],3.29
same,glycan array binding signal (z-score),[6],-0.634
same,glycan array binding signal (z-score),GalNAc(b1-4)GlcNAc6S,-0.012
same,glycan array binding signal (z-score),GalNAc(b1-6)GalNAc,-0.898
same,glycan array binding signal (z-score),GalNAc3S(b1-4)GlcNAc,-0.889
same,glycan array binding signal (z-score),GalNAc3S(b1-4)GlcNAc3S,0.576
same,glycan array binding signal (z-score),[7],0.202
same,glycan array binding signal (z-score),GalNAc4S6S(b1-4)GlcNAc,-0.78
same,glycan array binding signal (z-score),GalNAc6S(b1-4)GlcNAc,-0.855
same,glycan array binding signal (z-score),Glc(a1-4)Glc,0.319
same,glycan array binding signal (z-score),[8],-0.004
same,glycan array binding signal (z-score),Glc(a1-6)Glc(a1-6)Glc,-0.88
same,glycan array binding signal (z-score),[9],-0.508
same,glycan array binding signal (z-score),Glc(b1-4)Glc,-0.446
same,glycan array binding signal (z-score),Glc(b1-6)Glc,-0.787
same,glycan array binding signal (z-score),GlcA(b1-3)Gal,0.27
same,glycan array binding signal (z-score),GlcA(b1-3)GlcNAc,0.647
same,glycan array binding signal (z-score),GlcA(b1-6)Gal,1.04
same,glycan array binding signal (z-score),[10],-0.428
same,glycan array binding signal (z-score),[11],-0.088
same,glycan array binding signal (z-score),[12],-0.453
same,glycan array binding signal (z-score),[13],0.32
same,glycan array binding signal (z-score),[14],0.605
same,glycan array binding signal (z-score),[15],2.69
same,glycan array binding signal (z-score),[16],-0.548
same,glycan array binding signal (z-score),[17],0.14
same,glycan array binding signal (z-score),[18],-0.091
same,glycan array binding signal (z-score),[19],0.862
same,glycan array binding signal (z-score),[20],0.245

# Quoted at random: 3 entries already listed.
binder,measurement,setting,value
Aap lectin (Staphylococcus epidermidis) (protein) VNLNYSSPFMSLLSMPADSSSNNTKNTIDIPPTTVKGRDNYDFYGRVDIESNPTDLNATNLTRYNYGQPPGTTTAGAVQFKNQVSFDKDFDFNIRVANNRQSNTTGADGWGFMFSKKDGDDFLKNGGILREKGTPSAAGFRIDTGYYNNDPLDKIQKQAGQGYRGYGTFVKNDSQGNTSKVGSGTPSTDFLNYADNTTNDLDGKFHGQKLNNVNLKYNASNQTFTATYAGKTWTATLSELGLSPTDSYNFLVTSS,glycan array binding signal (z-score),[3],0.898
same,glycan array binding signal (z-score),[5],3.29
same,glycan array binding signal (z-score),[6],-0.634
